Experimental data reported in PubChem BioAssay AID445 (National Center for Advancing Translational Sciences (NCATS), 2006).
Where “and” joins values, the source holds several entries; their conditions need not be identical. Equal values may be shown once. The list shows a part of the results. Shown are side measurements of this screen, not its main read-out; they come without a call. Most of these compounds were active or inconclusive in the main read-out, so they are no random draw. Words in brackets tell the shape of the fitted curve; partial curves, single points and poor fits give uncertain potencies.

Assay: IkB Signaling
Settings: ABC-DLBCL IkBa-CBG/CBR dual luciferase ratio (green luciferase fused to IkBa over red control in OCI-Ly3 lymphoma cells), 4 h
Outline: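 Curves were fitted separately to fusion (green), unfused (red) and ratio luminescence, then classed by r2, magnitude and activity. Cells: OCI-Ly3, 4 h compound plus doxycycline at 37C; 10 uM MG-132 defined full response.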

[1] = measured here: control luc red channel unless noted

Q: Which results are given for COc1cc2c(cc1O)CC[C@@H]1[C@@H]2CC[C@@]2(C)[C@H](O)CC[C@H]12?
A: AC50 (measured here: IkB-luc green channel): 12.6 µM [rising, partial curve]; AC50 (measured here: control luc red channel): 15.8 µM [rising, partial curve]

Q: With Cc1nn(-c2ccccc2)c2c1N(CC(=O)N1CCN(c3ccc(F)cc3)CC1)C(=O)CS2 as the compound, how does the AC50 [1] read?
A: 39.8 µM [falling, single point]

Q: With CCOc1ccc(C(=O)c2ccc(OCC)c(N)c2)cc1N as the compound, how does the AC50 [1] read?
A: 5.01 µM [rising, partial curve]

Q: For CC1(C)C(=O)N(CC(=O)Nc2cccc(F)c2)c2ccc(S(=O)(=O)N3CCCCC3)cc21, which AC50 [1] is on record?
A: 39.8 µM [falling, single point]

Q: With COc1cccc2cc(C(=O)Nc3ccc(F)c(F)c3)c(=O)oc12 as the compound, how does the AC50 [1] read?
A: 0.2 µM [falling, full curve]

Q: For CC(=O)c1c(C)nn(CC(O)COc2ccc3c(c2)CCC3)c1C (configuration not stated), which AC50 [1] is on record?
A: 25.1 µM [falling, single point]

Q: Which AC50 [1] does the source give for CC(C)c1ccc(N2C(=O)CS(=O)(=O)C23C(=O)N(Cc2cccc(F)c2)c2ccccc23)cc1 (configuration not stated) here?
A: 31.6 µM [falling, partial curve, poor fit]

Q: Which AC50 [1] does the source give for Cc1cc2c(C(C)C)c(O)c(O)c(C=O)c2c(O)c1-c1c(C)cc2c(C(C)C)c(O)c(O)c(C=O)c2c1O here?
A: 12.6 µM [falling, partial curve] and 39.8 µM [falling, partial curve]

Q: Which AC50 [1] does the source give for Cc1ccc(C)c(NC(=O)c2cc(S(=O)(=O)N3CCCc4ccccc43)ccc2F)c1 here?
A: 7.94 µM [falling, full curve, poor fit]

Q: For CCOC(=O)c1ccc(NS(=O)(=O)c2ccc(-c3cc(C)no3)cc2)cc1, which AC50 [1] is on record?
A: 2.51 µM [falling, full curve]

Q: For Cc1cc(C)c(OCC(=O)N(Cc2ccco2)Cc2ccco2)c(C)c1, which AC50 [1] is on record?
A: 31.6 µM [falling, single point]

Q: For COc1ccc(Cn2ccc3nc(C)c(C(=O)Nc4cc(C)cc(C)c4)cc3c2=O)cc1, which AC50 [1] is on record?
A: 25.1 µM [falling, partial curve]

Q: Which AC50 [1] does the source give for Cc1nc2ccccc2c(=O)n1-c1ccc(NC(=O)c2cccc([N+](=O)[O-])c2)cc1 here?
A: 15.8 µM [falling, partial curve]

Q: With O=C(Nc1ccon1)c1cc(-c2ccccc2)nc2ccccc12 as the compound, how does the AC50 [1] read?
A: 7.94 µM [falling, partial curve]

Q: Which AC50 [1] does the source give for COc1ccccc1CCNC(=O)c1ccc(-c2nc(CSc3ccc(C)cc3)c(C)o2)cc1 here?
A: 31.6 µM [falling, single point]

Q: For CCOc1ccccc1Nc1nnc(SCc2ccc(C(=O)OC)o2)s1, which AC50 [1] is on record?
A: 39.8 µM [falling, single point]
